Data: patent US20140011978A1 (EPFL TTO, published 2014)

By UniProt entry, the sequences of proteins in these tests, tags left out. Residues count along the entry.
UniProt P02769, 25-607 limits assumed: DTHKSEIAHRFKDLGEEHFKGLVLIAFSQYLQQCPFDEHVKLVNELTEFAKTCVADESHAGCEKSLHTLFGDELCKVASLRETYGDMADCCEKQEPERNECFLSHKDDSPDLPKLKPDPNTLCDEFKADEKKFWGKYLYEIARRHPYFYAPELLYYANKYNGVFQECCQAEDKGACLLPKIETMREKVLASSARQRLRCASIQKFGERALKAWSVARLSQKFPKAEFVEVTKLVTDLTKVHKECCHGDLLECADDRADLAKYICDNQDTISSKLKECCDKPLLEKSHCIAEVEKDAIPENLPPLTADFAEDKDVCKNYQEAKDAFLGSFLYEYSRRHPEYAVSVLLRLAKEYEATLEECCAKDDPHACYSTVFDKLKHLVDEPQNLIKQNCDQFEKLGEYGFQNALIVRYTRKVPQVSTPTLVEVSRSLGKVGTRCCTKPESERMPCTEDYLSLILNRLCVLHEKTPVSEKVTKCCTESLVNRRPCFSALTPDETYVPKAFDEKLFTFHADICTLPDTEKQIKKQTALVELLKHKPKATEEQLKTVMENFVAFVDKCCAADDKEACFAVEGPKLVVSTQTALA

Legend:
BSA = target: T1, BSA (bovine, UniProt P02769); assay: ELISA: BSA coated as control, fragment in solution, A450 (methods analogous to Example 3)
T1 construct: negative control; also called bovine serum albumin

EGF = assay: ELISA: morphogen coated, fragment in solution, A450 (methods analogous to Example 3)

B1: FN III9*-10-TNC III1-5 (other)
chain: NQEQVSPLAGGLDSPTGIDFSDITANSFTVHWIAPRATITGYRIRHHPEHFSGRPREDRVPHSRNSITLTNLTPGTEYVVSIVALNGREESPPLIGQQSTVSDVPRDLEVVAATPTSLLISWDAPAVTVRYYRITYGETGGNSPVQEFTVPGSKSTATISGLKPGVDYTITVYAVTGRGDSPASSKPISINYRTGGSEVSPPKDLVVTEVTEETVNLAWDNEMRVTEYLVVYTPTHEGGLEMQFRVPGDQTSTIIQELEPGVEYFIRVFAILENKKSIPVSARVATYLPAPEGLKFKSIKETSVEVEWDPLDIAFETWEIIFRNMNKEDEGEITKSLRRPETSYRQTGLAPGQEYEISLHIVKNNTRGPGLKRVTTTRLDAPSQIEVKDVTDTTALITWFKPLAEIDGIELTYGIKDVPGDRTTIDLTEDENQYSIGNLKPDTEYEVSLISRRGDMSSNPAKETFTTGLDAPRNLRRVSQTDNSITLEWRNGKAAIDSYRIKYAPISGGDHAEVDVPKSQQATTKTTLTGLRPGTEYGIGVSAVKEDKESNPATINAATELDTPKDLQVSETAETSLTLLWKTPLAKFDRYRLNYSLPTGQWVGVQLPRNTTSYVLRGLEPGQEYNVLLTAEKGRHKSKPARVKASTEQAGGGSHHHHHH
notes: The two are tied by name only; also called TG-FN III9*-10, TNC III1-5
Does B1 bind (BSA)?
Result: no binding

Does B1 bind (EGF)?
Result: no binding
